Results published in the supplement of paper PMC10849652.
Some of the results follow. Residues, ends and D or L forms follow the SMILES beside them. *: point of attachment. Cbz = O=C(OCc1ccccc1)*

Protein sequences, listed by entry. Tags and fused reporters are not part of them. Lines headed by an entry give the natural chain unless they say otherwise; changes in a name come on top.
UniProt Q9Y3E7, whole entry, looked up: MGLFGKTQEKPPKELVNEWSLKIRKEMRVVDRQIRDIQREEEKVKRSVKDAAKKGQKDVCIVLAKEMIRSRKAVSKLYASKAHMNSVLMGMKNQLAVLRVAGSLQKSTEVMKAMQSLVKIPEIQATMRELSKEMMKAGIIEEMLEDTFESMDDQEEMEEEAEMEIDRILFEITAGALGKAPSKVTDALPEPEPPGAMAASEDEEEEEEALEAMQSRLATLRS
UniProt Q9NRR8: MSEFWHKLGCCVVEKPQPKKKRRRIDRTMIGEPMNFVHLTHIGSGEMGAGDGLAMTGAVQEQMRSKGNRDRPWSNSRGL
UniProt Q96G28: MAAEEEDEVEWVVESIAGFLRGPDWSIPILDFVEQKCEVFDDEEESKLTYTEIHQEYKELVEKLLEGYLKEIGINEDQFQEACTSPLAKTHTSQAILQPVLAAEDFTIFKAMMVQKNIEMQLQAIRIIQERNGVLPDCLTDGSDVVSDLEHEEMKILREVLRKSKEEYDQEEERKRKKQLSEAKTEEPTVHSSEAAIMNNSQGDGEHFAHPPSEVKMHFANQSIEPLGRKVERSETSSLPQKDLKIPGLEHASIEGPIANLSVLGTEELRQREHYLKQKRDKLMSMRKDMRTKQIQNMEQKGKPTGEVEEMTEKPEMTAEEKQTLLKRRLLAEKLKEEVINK
UniProt Q00587: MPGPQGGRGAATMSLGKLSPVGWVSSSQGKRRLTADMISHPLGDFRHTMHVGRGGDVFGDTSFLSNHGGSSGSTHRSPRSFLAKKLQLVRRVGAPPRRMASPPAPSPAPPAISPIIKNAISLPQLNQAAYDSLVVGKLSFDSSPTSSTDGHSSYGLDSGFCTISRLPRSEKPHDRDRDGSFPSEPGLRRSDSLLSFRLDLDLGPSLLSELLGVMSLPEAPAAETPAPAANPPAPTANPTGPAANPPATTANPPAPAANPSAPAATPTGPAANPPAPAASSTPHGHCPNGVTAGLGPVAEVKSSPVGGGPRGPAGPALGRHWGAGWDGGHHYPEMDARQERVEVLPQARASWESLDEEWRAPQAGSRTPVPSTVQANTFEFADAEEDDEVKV
UniProt Q9P2B7: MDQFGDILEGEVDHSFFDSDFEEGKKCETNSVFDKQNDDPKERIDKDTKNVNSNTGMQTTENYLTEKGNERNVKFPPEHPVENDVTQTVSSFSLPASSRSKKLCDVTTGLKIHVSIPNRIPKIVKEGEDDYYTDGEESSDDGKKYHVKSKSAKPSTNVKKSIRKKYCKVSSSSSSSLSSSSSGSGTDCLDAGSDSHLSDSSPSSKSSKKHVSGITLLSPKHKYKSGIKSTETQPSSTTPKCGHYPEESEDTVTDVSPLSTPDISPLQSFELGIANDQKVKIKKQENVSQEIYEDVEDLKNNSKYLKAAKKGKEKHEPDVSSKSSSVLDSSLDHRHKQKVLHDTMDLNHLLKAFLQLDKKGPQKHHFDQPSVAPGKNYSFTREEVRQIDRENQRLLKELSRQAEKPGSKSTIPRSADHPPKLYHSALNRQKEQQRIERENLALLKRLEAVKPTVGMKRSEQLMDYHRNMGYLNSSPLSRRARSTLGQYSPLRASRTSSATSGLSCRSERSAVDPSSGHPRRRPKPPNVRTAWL
UniProt Q00536: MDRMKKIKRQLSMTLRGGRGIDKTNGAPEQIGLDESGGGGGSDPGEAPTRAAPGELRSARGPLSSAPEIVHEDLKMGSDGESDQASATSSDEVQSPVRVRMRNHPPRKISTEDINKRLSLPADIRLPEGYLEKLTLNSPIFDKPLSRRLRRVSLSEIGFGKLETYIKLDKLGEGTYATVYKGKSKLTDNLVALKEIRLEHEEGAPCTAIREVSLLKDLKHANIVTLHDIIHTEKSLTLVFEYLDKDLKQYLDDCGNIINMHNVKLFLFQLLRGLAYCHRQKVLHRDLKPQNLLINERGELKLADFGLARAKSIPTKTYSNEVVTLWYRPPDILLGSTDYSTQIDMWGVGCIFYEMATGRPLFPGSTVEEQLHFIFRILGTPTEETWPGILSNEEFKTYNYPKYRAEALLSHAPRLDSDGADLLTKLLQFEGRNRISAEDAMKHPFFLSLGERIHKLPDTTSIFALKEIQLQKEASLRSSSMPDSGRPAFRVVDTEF
UniProt Q9BUK0: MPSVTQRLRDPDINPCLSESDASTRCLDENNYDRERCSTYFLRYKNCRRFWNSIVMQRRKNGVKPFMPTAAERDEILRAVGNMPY
UniProt Q02224: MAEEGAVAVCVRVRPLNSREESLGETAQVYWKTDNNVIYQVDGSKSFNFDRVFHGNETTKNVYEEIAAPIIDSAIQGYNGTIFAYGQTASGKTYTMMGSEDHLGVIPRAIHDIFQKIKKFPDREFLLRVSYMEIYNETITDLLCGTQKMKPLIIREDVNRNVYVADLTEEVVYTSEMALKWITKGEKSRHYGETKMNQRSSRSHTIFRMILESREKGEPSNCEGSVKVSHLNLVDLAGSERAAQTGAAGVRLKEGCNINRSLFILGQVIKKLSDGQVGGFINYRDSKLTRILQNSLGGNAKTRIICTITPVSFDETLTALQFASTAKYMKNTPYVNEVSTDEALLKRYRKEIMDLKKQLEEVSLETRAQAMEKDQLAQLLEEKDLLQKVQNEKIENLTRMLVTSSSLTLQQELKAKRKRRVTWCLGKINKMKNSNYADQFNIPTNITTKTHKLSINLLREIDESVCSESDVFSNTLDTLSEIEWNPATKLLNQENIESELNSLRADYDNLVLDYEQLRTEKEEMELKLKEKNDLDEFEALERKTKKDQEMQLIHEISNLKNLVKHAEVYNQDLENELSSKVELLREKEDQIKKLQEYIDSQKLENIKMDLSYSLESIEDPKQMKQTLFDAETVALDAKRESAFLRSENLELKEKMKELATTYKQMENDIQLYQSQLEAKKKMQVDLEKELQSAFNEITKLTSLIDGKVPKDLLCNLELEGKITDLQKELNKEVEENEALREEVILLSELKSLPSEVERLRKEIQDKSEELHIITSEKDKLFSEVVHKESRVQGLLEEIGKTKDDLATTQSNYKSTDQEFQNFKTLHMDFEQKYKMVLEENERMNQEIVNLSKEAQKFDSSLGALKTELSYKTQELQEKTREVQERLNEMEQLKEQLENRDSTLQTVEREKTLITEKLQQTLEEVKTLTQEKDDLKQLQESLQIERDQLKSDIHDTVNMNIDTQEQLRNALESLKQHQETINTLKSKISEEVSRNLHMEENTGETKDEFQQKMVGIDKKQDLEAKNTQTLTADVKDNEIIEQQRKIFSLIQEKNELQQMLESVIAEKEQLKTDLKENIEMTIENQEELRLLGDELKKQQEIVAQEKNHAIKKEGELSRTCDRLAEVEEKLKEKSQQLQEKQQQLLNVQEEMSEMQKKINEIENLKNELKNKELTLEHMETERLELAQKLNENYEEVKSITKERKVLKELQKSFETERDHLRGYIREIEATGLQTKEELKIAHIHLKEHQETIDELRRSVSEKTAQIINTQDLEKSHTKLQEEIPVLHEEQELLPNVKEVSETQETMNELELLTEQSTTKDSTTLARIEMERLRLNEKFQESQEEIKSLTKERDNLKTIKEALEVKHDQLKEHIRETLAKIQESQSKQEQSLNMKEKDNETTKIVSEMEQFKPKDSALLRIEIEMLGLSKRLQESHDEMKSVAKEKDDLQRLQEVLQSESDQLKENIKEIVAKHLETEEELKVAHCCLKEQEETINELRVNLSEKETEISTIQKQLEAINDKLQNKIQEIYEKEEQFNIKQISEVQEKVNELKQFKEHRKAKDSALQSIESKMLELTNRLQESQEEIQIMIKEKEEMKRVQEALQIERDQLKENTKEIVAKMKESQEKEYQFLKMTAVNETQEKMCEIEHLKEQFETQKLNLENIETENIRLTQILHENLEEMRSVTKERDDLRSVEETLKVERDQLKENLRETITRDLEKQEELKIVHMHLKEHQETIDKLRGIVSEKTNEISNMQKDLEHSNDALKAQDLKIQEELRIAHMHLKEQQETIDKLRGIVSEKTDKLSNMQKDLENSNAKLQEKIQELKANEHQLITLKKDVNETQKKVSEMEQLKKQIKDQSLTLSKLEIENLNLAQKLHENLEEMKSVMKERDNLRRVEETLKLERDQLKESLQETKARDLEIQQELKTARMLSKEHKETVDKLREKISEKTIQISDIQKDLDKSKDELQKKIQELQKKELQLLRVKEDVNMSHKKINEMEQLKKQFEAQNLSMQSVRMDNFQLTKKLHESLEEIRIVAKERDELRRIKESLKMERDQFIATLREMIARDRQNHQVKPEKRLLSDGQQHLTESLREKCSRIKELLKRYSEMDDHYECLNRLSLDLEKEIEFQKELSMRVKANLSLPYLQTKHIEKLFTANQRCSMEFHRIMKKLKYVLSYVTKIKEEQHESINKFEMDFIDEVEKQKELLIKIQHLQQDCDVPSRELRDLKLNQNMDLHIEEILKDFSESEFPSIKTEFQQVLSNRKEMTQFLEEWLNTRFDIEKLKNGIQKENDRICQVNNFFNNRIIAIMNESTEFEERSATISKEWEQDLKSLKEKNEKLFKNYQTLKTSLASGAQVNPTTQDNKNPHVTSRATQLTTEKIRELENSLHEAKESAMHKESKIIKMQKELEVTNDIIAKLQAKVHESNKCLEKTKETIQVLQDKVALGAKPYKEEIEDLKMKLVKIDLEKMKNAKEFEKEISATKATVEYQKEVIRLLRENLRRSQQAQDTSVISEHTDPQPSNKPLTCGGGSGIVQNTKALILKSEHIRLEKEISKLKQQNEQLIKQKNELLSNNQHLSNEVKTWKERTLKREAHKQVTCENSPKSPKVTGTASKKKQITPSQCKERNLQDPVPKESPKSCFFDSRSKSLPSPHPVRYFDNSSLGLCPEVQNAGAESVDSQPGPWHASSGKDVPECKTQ
UniProt O94986: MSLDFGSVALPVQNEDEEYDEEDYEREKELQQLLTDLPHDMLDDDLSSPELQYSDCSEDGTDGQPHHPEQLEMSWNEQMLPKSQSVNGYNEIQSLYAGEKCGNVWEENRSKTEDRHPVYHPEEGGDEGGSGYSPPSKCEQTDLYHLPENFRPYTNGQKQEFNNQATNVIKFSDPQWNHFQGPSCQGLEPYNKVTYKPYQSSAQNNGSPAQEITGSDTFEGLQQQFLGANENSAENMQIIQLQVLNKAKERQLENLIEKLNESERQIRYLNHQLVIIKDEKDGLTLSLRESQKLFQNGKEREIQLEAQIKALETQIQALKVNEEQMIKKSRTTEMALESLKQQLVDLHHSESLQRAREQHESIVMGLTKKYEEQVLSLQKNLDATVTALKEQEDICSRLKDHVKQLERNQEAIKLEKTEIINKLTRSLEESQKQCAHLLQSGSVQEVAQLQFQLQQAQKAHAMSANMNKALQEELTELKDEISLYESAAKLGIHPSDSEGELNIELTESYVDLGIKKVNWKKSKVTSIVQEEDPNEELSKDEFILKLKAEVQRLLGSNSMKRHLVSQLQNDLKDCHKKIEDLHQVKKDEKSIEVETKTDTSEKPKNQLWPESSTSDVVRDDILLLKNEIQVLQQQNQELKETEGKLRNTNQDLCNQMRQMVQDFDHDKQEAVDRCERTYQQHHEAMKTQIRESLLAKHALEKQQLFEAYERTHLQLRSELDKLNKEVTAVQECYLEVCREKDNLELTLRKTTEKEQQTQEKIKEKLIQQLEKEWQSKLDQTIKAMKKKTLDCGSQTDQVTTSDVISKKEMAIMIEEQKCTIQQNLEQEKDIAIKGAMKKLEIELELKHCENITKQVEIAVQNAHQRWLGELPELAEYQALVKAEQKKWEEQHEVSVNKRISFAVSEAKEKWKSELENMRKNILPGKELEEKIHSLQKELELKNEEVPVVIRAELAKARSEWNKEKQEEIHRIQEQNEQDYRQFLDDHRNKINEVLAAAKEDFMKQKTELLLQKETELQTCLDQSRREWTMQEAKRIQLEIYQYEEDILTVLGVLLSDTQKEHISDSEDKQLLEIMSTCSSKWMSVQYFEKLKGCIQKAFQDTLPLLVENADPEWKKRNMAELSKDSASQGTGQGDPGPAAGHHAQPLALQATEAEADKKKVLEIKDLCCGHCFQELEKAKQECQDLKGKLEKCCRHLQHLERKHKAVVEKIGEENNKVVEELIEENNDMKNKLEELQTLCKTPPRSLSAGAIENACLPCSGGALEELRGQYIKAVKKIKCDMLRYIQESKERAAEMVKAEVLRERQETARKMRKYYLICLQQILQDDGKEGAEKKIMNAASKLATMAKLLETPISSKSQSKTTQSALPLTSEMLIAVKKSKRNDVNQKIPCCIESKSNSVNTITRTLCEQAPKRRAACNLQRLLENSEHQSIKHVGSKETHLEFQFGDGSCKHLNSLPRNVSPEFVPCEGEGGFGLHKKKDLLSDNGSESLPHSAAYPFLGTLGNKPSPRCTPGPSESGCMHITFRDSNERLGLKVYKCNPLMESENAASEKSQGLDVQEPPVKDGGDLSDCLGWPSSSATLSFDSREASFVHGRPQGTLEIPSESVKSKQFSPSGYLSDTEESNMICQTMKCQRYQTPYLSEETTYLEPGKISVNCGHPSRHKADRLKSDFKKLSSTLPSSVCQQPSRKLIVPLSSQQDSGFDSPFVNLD

Experiments:
Assay in all cases: log2 fold change, soluble protein after heating vs DMSO (PISA); higher = thermal stabilisation; K562 cells, 10 uM, 30 min; active = over 0.2 and 3.5 SD of the protein, either way, in both replicates (recomputed)
[1] = compound: C1COCCN1CCN2C3=CC=CC=C3N=C2NC(=O)C4=CC(=CC=C4)[N+](=O)[O-] [IRAK-1-4 Inhibitor I]
How it was run: (§1)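 Soluble protein was defined as the supernatant after 21,000xg for 90 min. It came from K562 cells at 2×10^6 cells/mL given 10 μM compound for 30 min, heated in aliquots for 3 min across 48°C-58°C, pooled, and extracted in PBS with 0.5% NP-40 at 4°C, and was quantified by TMTpro 16plex LC-MS/MS with equalised channel sums. Thermal stability against control samples, from duplicates, is reported as log2 fold change.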

[2] = compound: C=CC(=O)N1CCC[C@@H](n2nc(-c3ccc(Oc4ccccc4)cc3)c3c(N)ncnc32)C1 [ibrutinib]
How it was run: as §1

[3] = compound: CC(=O)c1cnc2ccc(-c3cc(Cl)c(O)c(Cl)c3)nc2c1N[C@H]1CC[C@H](CN(C)C)CC1
How it was run: as §1

[4] = compound: CC(C)(C)Cn1c(N)nc2ccc(-c3[nH]c(C(C)(C)C)nc3-c3ccc(F)cc3)nc21 [ralimetinib]
How it was run: as §1

[5] = compound: CC(C)(O)CC(=O)NCCn1ccc2ncnc(Nc3ccc(Oc4cccc(C(F)(F)F)c4)c(Cl)c3)c21
How it was run: as §1

[6] = compound: CC(C)C1=C2N=C(C=C(N2N=C1)NCC3=CC=CC=C3)NCCCCCCN
How it was run: as §1

[7] = compound: CC(C)C[C@@H](C=O)NC(=O)[C@H](CC(C)C)NC(=O)[C@H](CC(C)C)NC(=O)OCc1ccccc1
How it was run: as §1

[8] = compound: CC(C)N(C[C@H]1O[C@@H](n2cnc3c(N)ncnc32)[C@H](O)[C@@H]1O)[C@H]1C[C@@H](CCc2nc3cc(C(C)(C)C)ccc3[nH]2)C1 [pinometostat]
How it was run: as §1

[9] = compound: CC1=C(C2=C(C=C1)C(=O)C3=CC=CC=C3N2CCCN)C
How it was run: as §1

[10] = compound: CC1=C(C(CC(=O)N1)C2=CC=C(C=C2)C(F)(F)F)C(=O)NC3=C(C=C4C(=C3)C=NN4)F
How it was run: as §1

Target | log2 fold change [1] | log2 fold change [2] | log2 fold change [3] | log2 fold change [4] | log2 fold change [5] | log2 fold change [6] | log2 fold change [7] | log2 fold change [8] | log2 fold change [9] | log2 fold change [10]
CDK13 (UniProt Q14004) | inactive: -0.05 | inactive: 0.024 | active: -0.52 | inactive: 0.199 | inactive: 0.031 | inactive: -0.171 | inactive: 0.081 | inactive: 0.043 | inactive: -0.017 | –
CHMP4C (UniProt Q96CF2) | inactive: 0.097 | inactive: -0.022 | inactive: -0.028 | inactive: -0.087 | inactive: -0.018 | inactive: -0.099 | inactive: 0.039 | inactive: -0.095 | inactive: -0.019 | –
CHMP3 (UniProt Q9Y3E7) | inactive: 0.043 | inactive: 0.006 | inactive: -0.025 | inactive: -0.034 | inactive: -0.098 | inactive: -0.167 | inactive: 0.01 | inactive: 0.015 | inactive: -0.004 | inactive: -0.005
CDC42SE1 (UniProt Q9NRR8) | inactive: 0.066 | inactive: 0.049 | inactive: -0.004 | inactive: 0.021 | inactive: 0.042 | inactive: -0.111 | inactive: 0.074 | inactive: 0.11 | inactive: 0.015 | –
CEPT1 (UniProt Q9Y6K0) | inactive: 0.035 | inactive: -0.014 | inactive: 0.072 | inactive: -0.026 | inactive: 0.073 | active: -0.466 | inactive: -0.118 | inactive: -0.016 | inactive: 0.118 | –
CDK8 (UniProt P49336) | inactive: 0.006 | inactive: -0.011 | active: 0.487 | inactive: -0.174 | inactive: -0.15 | inactive: -0.067 | inactive: 0.096 | inactive: -0.057 | inactive: -0.005 | –
CDK1 (UniProt P06493) | inactive: 0 | inactive: -0.046 | active: -0.401 | inactive: -0.031 | inactive: -0.051 | inactive: -0.02 | inactive: 0.051 | inactive: 0 | inactive: -0.021 | –
CFAP36 isoform 2 (UniProt Q96G28) | inactive: -0.183 | inactive: -0.022 | inactive: 0.001 | inactive: 0.053 | inactive: -0.012 | inactive: -0.09 | inactive: 0.065 | inactive: 0.024 | inactive: 0.103 | –
CES2 isoform 4 (UniProt O00748) | inactive: -0.005 | inactive: 0.077 | inactive: 0.038 | inactive: 0.006 | inactive: 0.012 | inactive: 0.045 | inactive: 0.06 | inactive: -0.02 | inactive: 0 | –
CHD3 isoform 3 (UniProt Q12873) | inactive: -0.052 | inactive: -0.1 | inactive: -0.284 | inactive: 0.36 | inactive: -0.075 | inactive: -0.319 | inactive: 0.186 | inactive: 0.071 | inactive: -0.009 | –
CDK5RAP1 (UniProt Q96SZ6) | inactive: -0.067 | inactive: 0.018 | inactive: 0.111 | inactive: -0.057 | inactive: -0.055 | inactive: -0.066 | inactive: -0.015 | inactive: 0.025 | inactive: 0.099 | –
CHCHD4 isoform 2 (UniProt Q8N4Q1) | inactive: 0.056 | inactive: 0.003 | inactive: 0.096 | inactive: -0.003 | inactive: 0.002 | inactive: 0.075 | inactive: 0.03 | inactive: -0.024 | inactive: -0.18 | –
CHCHD2 (UniProt Q9Y6H1) | inactive: 0.009 | inactive: 0.067 | inactive: 0.022 | inactive: -0.035 | inactive: -0.017 | inactive: 0.095 | inactive: -0.071 | inactive: -0.068 | inactive: -0.004 | –
CDKN2AIP (UniProt Q9NXV6) | inactive: -0.057 | inactive: 0.039 | inactive: 0.062 | inactive: 0.059 | inactive: 0.01 | inactive: 0.056 | inactive: -0.04 | inactive: 0.032 | active: 0.241 | –
CEMIP2 (UniProt Q9UHN6) | inactive: 0 | inactive: 0.096 | inactive: -0.045 | inactive: -0.023 | inactive: -0.026 | inactive: 0.122 | inactive: 0.11 | inactive: -0.035 | inactive: 0.057 | –
CERT isoform 3 (UniProt Q9Y5P4) | inactive: -0.052 | inactive: 0.017 | active: -0.382 | inactive: 0.038 | inactive: 0.166 | inactive: 0.103 | inactive: 0.005 | inactive: 0.026 | inactive: -0.033 | –
CDC42BPA isoform 6 (UniProt Q5VT25) | inactive: -0.025 | inactive: -0.09 | active: -1.07 | inactive: 0.094 | inactive: -0.02 | inactive: -0.193 | inactive: 0.043 | inactive: 0.029 | inactive: 0.132 | –
CDC42EP1 (UniProt Q00587) | inactive: 0.097 | inactive: 0.086 | active: -0.527 | inactive: 0.076 | inactive: -0.104 | active: -0.43 | inactive: -0.009 | inactive: -0.043 | inactive: -0.055 | –

Rewritten tab-delimited: part of the list above
Target	log2 fold change [1]	log2 fold change [2]	log2 fold change [3]	log2 fold change [4]	log2 fold change [5]	log2 fold change [6]	log2 fold change [7]	log2 fold change [8]	log2 fold change [9]	log2 fold change [10]
CHCHD2 (UniProt Q9Y6H1)	inactive: 0.009	inactive: 0.067	inactive: 0.022	inactive: -0.035	inactive: -0.017	inactive: 0.095	inactive: -0.071	inactive: -0.068	inactive: -0.004	–
CDKN2AIP (UniProt Q9NXV6)	inactive: -0.057	inactive: 0.039	inactive: 0.062	inactive: 0.059	inactive: 0.01	inactive: 0.056	inactive: -0.04	inactive: 0.032	active: 0.241	–

Remaining list, next part.

Target | log2 fold change [1] | log2 fold change [2] | log2 fold change [3] | log2 fold change [4] | log2 fold change [5] | log2 fold change [6] | log2 fold change [7] | log2 fold change [8] | log2 fold change [9] | log2 fold change [10]
CENPU (UniProt Q71F23) | inactive: -0.121 | – | inactive: 0.088 | – | inactive: 0.01 | inactive: 0.124 | – | inactive: 0.184 | inactive: -0.191 | –
CFAP97 (UniProt Q9P2B7) | inactive: 0.033 | inactive: 0.046 | inactive: -0.057 | inactive: 0.256 | inactive: 0.057 | inactive: -0.08 | inactive: 0.104 | inactive: 0.022 | inactive: -0.109 | –
CDK5RAP2 (UniProt Q96SN8) | inactive: -0.046 | inactive: -0.245 | – | – | inactive: 0.109 | – | – | inactive: 0.103 | inactive: -0.038 | –
CENPK (UniProt Q9BS16) | inactive: 0.164 | inactive: -0.1 | – | – | – | inactive: -0.268 | – | inactive: -0.292 | – | inactive: -0.014
CENPS (UniProt Q8N2Z9) | inactive: -0.143 | inactive: -0.034 | inactive: -0.097 | – | inactive: -0.001 | inactive: 0.004 | – | inactive: -0.102 | inactive: 0.08 | inactive: 0.189
CDC5L (UniProt Q99459) | inactive: -0.175 | – | inactive: -0.139 | inactive: 0.01 | – | inactive: 0.387 | inactive: 0.196 | inactive: 0.145 | inactive: -0.272 | –
CEP192 (UniProt Q8TEP8) | inactive: -0.006 | inactive: -0.018 | inactive: -0.094 | – | inactive: 0.046 | inactive: 0.084 | – | inactive: 0.02 | inactive: 0.039 | inactive: 0.203
CDK16 isoform 2 (UniProt Q00536) | inactive: -0.029 | inactive: -0.018 | active: 0.843 | inactive: 0.05 | inactive: -0.031 | inactive: 0.069 | inactive: 0.059 | inactive: 0.016 | inactive: 0.025 | –
CEP135 (UniProt Q66GS9) | inactive: 0.175 | inactive: 0.198 | inactive: -0.085 | – | inactive: 0.02 | – | – | inactive: -0.01 | – | –
CDC45 isoform 3 (UniProt O75419) | inactive: -0.216 | – | inactive: -0.129 | inactive: 0.084 | inactive: 0.014 | – | inactive: 0.088 | inactive: 0.31 | inactive: -0.2 | inactive: 0.116
CHCHD7 isoform 4 (UniProt Q9BUK0) | inactive: 0.026 | inactive: 0.022 | inactive: -0.01 | inactive: -0.05 | – | inactive: -0.007 | inactive: 0.095 | inactive: -0.069 | inactive: -0.095 | inactive: 0.089
CEP97 isoform 2 (UniProt Q8IW35) | inactive: 0.025 | – | inactive: 0.075 | inactive: 0.039 | inactive: 0.082 | inactive: 0.003 | inactive: 0.033 | inactive: 0.164 | inactive: 0.037 | inactive: -0.293
CEP350 (UniProt Q5VT06) | inactive: -0.163 | – | inactive: 0.071 | inactive: -0.21 | inactive: 0.057 | – | inactive: -0.019 | inactive: 0.565 | inactive: -0.002 | inactive: -0.099
CENPE (UniProt Q02224) | inactive: 0.046 | inactive: -0.184 | inactive: 0.431 | inactive: 0.119 | – | inactive: 0.211 | inactive: 0.11 | inactive: -0.002 | inactive: 0.101 | –
CHFR (UniProt Q96EP1) | inactive: 0.028 | – | – | – | inactive: -0.04 | – | – | inactive: 0.096 | inactive: -0.038 | –
CHM (UniProt P24386) | inactive: -0.045 | – | inactive: 0.001 | inactive: 0.016 | inactive: 0.053 | inactive: 0.098 | inactive: -0.128 | inactive: -0.083 | inactive: 0.136 | –
CEP152 (UniProt O94986) | inactive: 0.132 | inactive: 0.161 | – | inactive: -0.216 | – | inactive: 0.027 | inactive: 0.074 | inactive: -0.031 | inactive: -0.186 | inactive: 0.136
